Earlier results in patent US8987322B2, “Pharmaceutical formulations for carrier-mediated transport statins and uses thereof” (Circ Pharma Research and Development Limited, priority 2003, dated 2015).

Legend:
[1] = like that found in the stomach

In the case of `CC(C)c1c(C(=O)Nc2ccccc2)c(-c2ccccc2)c(-c2ccc(F)cc2)n1CC[C@@H](O)C[C@@H](O)CC(=O)O` [atorvastatin], the “stability in an acidic environment” value [1] is given as “stable in acidic environments”, the “time to steady-state plasma levels” value (in vivo) is given as 32 to 72 h and the “delay of tmax when taken with food” value (with food) is given as 10 h. For the same compound, the “reduction of Cmax when taken with food” value (with food) was 50%.
